Data on 54 compounds can be found in PubChem BioAssay AID1458 (National Center for Advancing Translational Sciences (NCATS), 2008).

In all, about 210,000 compounds went through this assay and about 5,900 (2.8%) were called active. About 5% were inconclusive and are not listed. The call rests on the fitted dose curve; in most records, active means well fitted activation curve with a large enough effect; inconclusive means small, poorly fitted or top-dose-only effect; inactive means no such curve, though single readings can be large or run the other way. The entries are a selection whose mix differs from that of the whole data set. The source gives no active or inactive call for entries shown without one. More than one record can exist for a structure, and the calls need not agree.
Potency means the concentration at half of the fitted maximal effect.

The nature of the test: qHTS Assay for Enhancers of SMN2 Splice Variant Expression. Further: nearly all actives have a fitted effect of over 55% in size. On activity change, positive = activation: % of control where 0% means no effect. As to conditions: HEK293 SMN2-luciferase splicing reporter, luminescence, 30-36 h; activity change, positive = activation: at 46.1 µM (top of the series) unless noted. From the text:
NIH Chemical Genomics Center [NCGC] NIH Molecular Libraries Probe Production centers Network [MLPCN] MLPCN Grant: R03 MH084179-01 Assay Submitter (PI): Elliot Androphy NCGC Assay Overview: Spinal muscular atrophy (SMA) is caused by insufficient levels of the survival motor neuron protein SMN. The SMN locus on chromosome 5q13 contains two inverted copies of SMN called SMN1 and SMN2 which are 99% identical at the amino acid level. SMN1 is a fully functional protein and SMN2 skips exon 7 90% of the time. Skipping of exon 7 produces non-functional protein product. 10% of the SMN2 protein includes exon 7 and is fully functional. In the SMA disease state, mutations in the SMN1 locus are the cause of the disease state. Because only 10% of SMN2 is of the fully functional form, it is not sufficient to overcome the deficiency produced by the loss of the SMN1 product. A therapy that either increase the amount of SMN2 product made or to increase the inclusion of exon 7 has been proposed for the treatment of SMA. We have designed an assay to identify small molecules that can increase the amount of functional SMN2 product by appending a luciferase reporter gene after the native SMN2 gene, such that inclusion of exon 7 in the expressed product places the luciferase sequence in frame, thus generating functional luciferase enzyme.
NCGC Assay Protocol Summary: This screen utilizes a luciferase reporter gene assay, combining the promoter and splicing based cassettes in tandem with the major portion of the native SMN2 cDNA, and then transfected into HEK293 cells. Compounds that increase luciferase signal presumably enhance expression of the functional SMN2 splice variant. Passaging media contained DMEM w/ glutamax (+phenol red) 10% FCS, 1x pen/strep, 200 ug/ml hygro, 1x sodium pyruvate. Assay media contained DMEM w/ glutamax (-phenol red) 10% FCS, 1x pen strep, 1x pyruvate Sequence, Parameter, Value, Description (1) Cells, […], 2000 cells/well, 1536 TC treated White solid bottom plate (2) Time, 10-12 hours, 37C 5% CO2 (3) Compound, 23 nl, MLSMR Library (4) Control Compound, 23 nL, Sodium butyrate st 4.5mM (final) conc (5) Time, 30-36 hours, 37C 5% CO2 (6) Reagent, 3 ul, One Glo (TM) from Promega (7) Time, 5-15 minutes, Room temp (8) Detector, Viewlux: luminescent read, 60 second integration, high speed 2x binning Keywords: Spinal muscular atrophy, SMA, SMN2, high throughput screening, MLSMR, MLPCN, NIH Roadmap, qHTS and NCGC
(In general: Quantitative high-throughput screening tests each substance at several concentrations.)
In the case of `Cc1ccc(S(=O)(=O)Nc2nc(C)c(C(=O)N/N=C/c3ccccc3)s2)cc1`, the “activity change, positive = activation” value is inactive: -37.5%. In the case of `CN1C(=O)/C(=C2/C=Cc3ccccc3N2CCCS(=O)(=O)O)SC1=S`, the activity change, positive = activation is -36%.

On to `CCc1nnc(NS(=O)(=O)c2ccc(N/C=C\C(=O)c3ccc(C)cc3)cc2)s1`, for which the “activity change, positive = activation” value was inactive: 23.1%.

In the case of `Cc1cccc2c1NC(=O)/C2=C\C(=O)c1cccs1`, the “activity change, positive = activation” value was inactive: -32.9%. On to `CCCOC(=O)c1cccc(Nc2nc(-c3cccnc3)nc3ccccc23)c1`, for which the “activity change, positive = activation” value is inactive: -79%. On the same count and under the same terms, the result for `CCOC(=O)c1ccc(NS(=O)(=O)c2ccc3c(c2)CCCN3C(C)=O)cc1` reads -87.1%. For the compound `CC1CCN(C(=O)Cn2cnc3c(cnn3C(C)(C)C)c2=O)CC1`, the Potency is active: 15.8 µM.

Consider `O=C(C1CCCN(S(=O)(=O)c2cccs2)C1)N1CCc2ccccc2C1` (centres undefined), for which the activity change, positive = activation was -39.1%. With `O=C(NCc1ccc(N2CCCC2=O)cc1)Nc1cccc(Cl)c1`, the activity change, positive = activation is -59.2%. In the case of `CCOc1ccc(OCc2cccc(C(=O)O)c2)cc1`, the Potency is active: 0.0316 µM.

For the compound `COc1ccc(/C=C2\SC(=O)N(CCNC(=O)C3CC4C=CC3C4)C2=O)cc1` (centres undefined), the Potency is active: 25.1 µM.

Turning to `CCN1CCN(CC(O)COc2ccc(Cl)cc2)CC1` (centres undefined), the activity change, positive = activation is 18.7%. On to `CC1(C)CNC(=O)c2sc(NC(=O)CN3CCOCC3)nc2C1`, for which the activity change, positive = activation amounted to 12.8%. For `CCOC(=O)C1=C(C)NC2=C(C(=O)CC(C)(C)C2)C1c1ccc2c(c1)CCCN2C` (centres undefined), the activity change, positive = activation stood at 49.6%. As for `Cc1ccc(S(=O)(=O)c2nc(NC3CCS(=O)(=O)C3)sc2Cl)cc1` (centres undefined), the activity change, positive = activation is -81.7%. Regarding `COc1c(C)cccc1C(=O)Nc1ccc(CN2CCOCC2)cc1`, the Potency was active: 15.8 µM. As to `COC(=O)COc1cc2ccccc2cc1C(=O)Nc1ccccc1`, the “activity change, positive = activation” value is inactive: -31.3%. For the compound `NC(=O)c1ccccc1NC(=O)Nc1cccc2ccccc12`, the “activity change, positive = activation” value is inactive: -20.3%. For `COCCCn1c(C)nnc1-c1cnn(-c2ccccc2)c1N`, the activity change, positive = activation was 35.9%. On the same count and under the same terms, the result for `COc1ccccc1N1CCN(C(=O)C2CC=CCC2C(=O)O)CC1` (centres undefined) reads 38.3%; that for `Cc1ccc(S(=O)(=O)NC(C(=O)Oc2ccc3c(C(F)(F)F)cc(=O)oc3c2)c2ccccc2)cc1` (centres undefined), -53.1%; that for `CC1=C(C(=O)Nc2ccccc2)C(c2ccncc2)C(C#N)=C(SCC(=O)NC(C)C)N1` (centres undefined), 51.8%. Take `C(=N\Nc1nc2ccccc2[nH]1)/c1ccccn1`: the activity change, positive = activation was -81.9%. On to `CC(=O)c1cccc(OCC(=O)c2cc(C)n(-c3cc(C)on3)c2C)c1`, for which the “activity change, positive = activation” value is inactive: -47%. In the case of `CC(C)(C)c1ccc(C(=O)c2c[nH]c(C(=O)NCCCn3ccnc3)c2)cc1`, the “activity change, positive = activation” value is inactive: -50.1%. Turning to `O=C(Nc1ccc(Cc2ccncc2)cc1)c1ccc(S(=O)(=O)N2CCOCC2)cc1`, the activity change, positive = activation is -62.9%. Consider `CCOc1ccc(C(=O)N/N=C(\c2ccccc2)c2ccccn2)cc1`, for which the “activity change, positive = activation” value is inactive: -63.4%.

In the case of `COc1ccc(NC(=O)CSC2CC(=O)N(c3ccc4c(c3)OCCO4)C2=O)cc1` (centres undefined), the activity change, positive = activation was determined as 21.6%.

Consider `O=C(/C=C/c1ccc(OCCCF)cc1)Nc1ccnc(-c2cccnc2)n1`, for which the “activity change, positive = activation” value is inactive: -35.6%. The same measure, in the same setting: the value for `CC(=O)c1ccc(NC(=O)C(C)N(C)CC(=O)Nc2ccc(N3CCOCC3)cc2)cc1` (centres undefined) was -14.2%; that for `COc1ccc(-c2nnc(SCC(=O)NCc3ccco3)n2C)cc1` was 31.6%. Regarding `O=C(CC(Nc1ccccc1)C(=O)O)c1ccccc1` (centres undefined), the Potency was active: 12.6 µM. With `Cc1c(C(=O)NNC(=S)Nc2cccc(Cl)c2)nnn1-c1ccccc1`, the “activity change, positive = activation” value was inactive: 36.5%.

With `COc1ccc(-c2cc(=O)c3cc(OC)ccc3o2)cc1`, the “activity change, positive = activation” value is inactive: 392%. Same read-out and setting: the value for `CCc1nnc(NC(=O)Cn2nnc(-c3ccccc3F)n2)s1` was 42.7%. Consider `O=C1CCN(S(=O)(=O)c2cccs2)c2ccc(C(F)(F)F)cc2N1`, for which the “activity change, positive = activation” value was inactive: 20.1%. For `COc1ccc(C/C(N)=N/OC(=O)c2cccs2)cc1`, the activity change, positive = activation was -18.5%. Consider `Cc1cc(C)n2nc(SCc3nnc(SCc4ccccc4Cl)s3)nc2n1`, for which the “activity change, positive = activation” value was inactive: -56.5%. `COc1ncc2nc(-c3cc(F)cc(F)c3)c(=O)n(CCc3ccccc3)c2n1`: the “activity change, positive = activation” value is inactive: -13.6%. Turning to `COc1ccc(C)cc1N(CC(=O)Nc1cccc(N(C)S(C)(=O)=O)c1)S(C)(=O)=O`, the activity change, positive = activation stood at 30.6%. For `O=C1c2ccccc2NC(c2ccccc2O)N1NS(=O)(=O)c1ccccc1` (centres undefined), the activity change, positive = activation was -48.6%. As for `CCC(C)NC(=O)C1(C)CCC(=O)N1CCc1ccc(OC)c(OC)c1` (centres undefined), the activity change, positive = activation is 21.9%.

With `CC(=O)c1cnc2nc(C(F)(F)F)nn2c1C`, the activity change, positive = activation was found to be 35.8%. For `CCCCC(=O)Nc1ccc(NC(=O)c2cccnc2)cn1`, the activity change, positive = activation is 47%.

As for `CCOC(=O)N/N=C/c1cn(Cc2ccccc2Cl)c2ccccc12`, the activity change, positive = activation was -56.3%. As to `Cc1cc(NS(=O)(=O)c2ccc(NC(=O)c3ccco3)cc2)no1`, the activity change, positive = activation came to 43.1%. `Cc1ccccc1OCC(=O)N1CCCc2ccccc21`: the activity change, positive = activation is 43%.

For `Cc1oc(C(C)(C)C)cc1C(=O)N1CCCC1C(=O)O` (centres undefined), the activity change, positive = activation was -88.3%.

As to `CC1C(c2ccccc2)N(C)C(c2ccccc2)CC1(O)c1ccccc1` (centres undefined), the activity change, positive = activation is -33.5%. With `CCOC(=O)Nc1ccc(S(=O)(=O)Nn2cnnc2)cc1`, the activity change, positive = activation turned out to be 40.8%.

For `Cc1ccc2nc(-c3ccccc3)cn2c1`, the Potency is active: 0.501 µM. With `CC(C)Cn1c(N)c(C(=O)COC(=O)CCc2nc3ccccc3s2)c(=O)n(C)c1=O`, the activity change, positive = activation was -41.8%.

On to `O=C(c1ccc(C(F)(F)F)cc1)N1CCCCC1`, for which the activity change, positive = activation amounted to 30.7%. On to `Cn1cccc1C(=O)N1CCC2(CC1)CCN(c1cccc(-c3ccccc3)c1)CC2`, for which the “activity change, positive = activation” value is inactive: -53.5%.
